Target: T1, human IL-4 receptor alpha chain (Interleukin-4 receptor subunit alpha, Uniprot #P24394, SEQ ID NO: 12) (human, UniProt P24394 26-232, limits assumed)
T1 construct: also called IL-4RA; human IL-4RA
T1 sequence: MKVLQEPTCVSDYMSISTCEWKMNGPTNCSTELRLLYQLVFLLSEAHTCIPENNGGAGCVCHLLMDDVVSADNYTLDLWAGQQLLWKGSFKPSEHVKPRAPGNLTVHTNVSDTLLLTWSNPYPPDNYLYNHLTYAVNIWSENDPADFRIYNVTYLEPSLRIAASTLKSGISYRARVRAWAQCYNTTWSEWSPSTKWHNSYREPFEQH
Assay: method not stated; target IL-4RA implied by the text

- Kd: 0.023 nM
- koff: 9.2e-05 s⁻¹
- kon: 4.1e+06 M⁻¹ s⁻¹
B1: lipocalin mutein directed against the human IL-4 receptor alpha chain (SEQ ID NO: 6) (designed binder)
chain: HHLLASDEEIQDVSGTWYLKAMTVDSRCPRAVYNSVTPMTLTTLEGGNLEAKFTAQRKGRWQKYKLVLEKTDEPGKYTASGGRHVAYIIRSHVKDHYIFHSEGLCPGQPVPGVWLVGRDPKNNLEALEDFEKAAGARGLSTESILIPRQSETSSPGSA
notes: Mutein of human tear lipocalin; also called IL-4 receptor alpha antagonist

— US20170112900A1 (Pieris, published 2017)
